From the supplement of paper PMC10849652
This is one part of the list.

Chains of the proteins cited; added tags and fusions are not shown. Lines headed by an entry give the natural chain unless they say otherwise; changes in a name come on top.
UniProt O14638, whole entry, looked up: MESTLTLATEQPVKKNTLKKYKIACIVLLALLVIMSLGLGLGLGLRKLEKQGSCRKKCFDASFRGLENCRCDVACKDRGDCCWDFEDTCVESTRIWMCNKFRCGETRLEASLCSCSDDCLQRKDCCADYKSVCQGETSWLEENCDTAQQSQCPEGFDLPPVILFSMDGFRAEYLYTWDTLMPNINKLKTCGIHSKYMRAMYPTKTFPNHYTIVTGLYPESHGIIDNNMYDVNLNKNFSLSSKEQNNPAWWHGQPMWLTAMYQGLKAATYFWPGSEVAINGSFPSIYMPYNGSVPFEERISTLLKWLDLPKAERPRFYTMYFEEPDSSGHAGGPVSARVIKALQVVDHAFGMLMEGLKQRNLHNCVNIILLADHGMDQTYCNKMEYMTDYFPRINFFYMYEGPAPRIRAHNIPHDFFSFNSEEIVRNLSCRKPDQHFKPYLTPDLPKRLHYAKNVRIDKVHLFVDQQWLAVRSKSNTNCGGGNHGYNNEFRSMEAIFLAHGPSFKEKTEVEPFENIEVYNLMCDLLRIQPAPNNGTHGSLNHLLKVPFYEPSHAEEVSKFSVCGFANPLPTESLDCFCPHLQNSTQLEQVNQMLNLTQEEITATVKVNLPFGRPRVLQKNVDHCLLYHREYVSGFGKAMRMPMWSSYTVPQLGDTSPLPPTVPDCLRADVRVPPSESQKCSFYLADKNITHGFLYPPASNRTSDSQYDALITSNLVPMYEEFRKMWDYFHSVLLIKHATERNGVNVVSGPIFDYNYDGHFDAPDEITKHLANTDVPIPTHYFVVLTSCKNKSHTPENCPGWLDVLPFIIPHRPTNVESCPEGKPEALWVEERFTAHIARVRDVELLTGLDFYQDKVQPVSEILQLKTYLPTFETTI
UniProt Q5VTE0, whole entry, looked up: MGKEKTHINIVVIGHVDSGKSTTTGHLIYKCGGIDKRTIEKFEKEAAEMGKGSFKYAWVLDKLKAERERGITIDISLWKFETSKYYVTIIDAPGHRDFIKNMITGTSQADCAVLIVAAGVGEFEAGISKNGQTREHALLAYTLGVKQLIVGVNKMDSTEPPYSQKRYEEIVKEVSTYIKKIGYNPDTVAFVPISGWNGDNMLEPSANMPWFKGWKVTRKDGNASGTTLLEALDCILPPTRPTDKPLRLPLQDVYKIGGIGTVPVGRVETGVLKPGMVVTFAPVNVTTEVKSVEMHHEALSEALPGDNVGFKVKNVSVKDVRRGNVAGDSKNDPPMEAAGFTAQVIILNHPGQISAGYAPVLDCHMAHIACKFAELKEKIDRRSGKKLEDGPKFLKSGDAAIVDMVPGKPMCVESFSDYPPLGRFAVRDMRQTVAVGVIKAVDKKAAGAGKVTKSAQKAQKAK
UniProt Q6IA86: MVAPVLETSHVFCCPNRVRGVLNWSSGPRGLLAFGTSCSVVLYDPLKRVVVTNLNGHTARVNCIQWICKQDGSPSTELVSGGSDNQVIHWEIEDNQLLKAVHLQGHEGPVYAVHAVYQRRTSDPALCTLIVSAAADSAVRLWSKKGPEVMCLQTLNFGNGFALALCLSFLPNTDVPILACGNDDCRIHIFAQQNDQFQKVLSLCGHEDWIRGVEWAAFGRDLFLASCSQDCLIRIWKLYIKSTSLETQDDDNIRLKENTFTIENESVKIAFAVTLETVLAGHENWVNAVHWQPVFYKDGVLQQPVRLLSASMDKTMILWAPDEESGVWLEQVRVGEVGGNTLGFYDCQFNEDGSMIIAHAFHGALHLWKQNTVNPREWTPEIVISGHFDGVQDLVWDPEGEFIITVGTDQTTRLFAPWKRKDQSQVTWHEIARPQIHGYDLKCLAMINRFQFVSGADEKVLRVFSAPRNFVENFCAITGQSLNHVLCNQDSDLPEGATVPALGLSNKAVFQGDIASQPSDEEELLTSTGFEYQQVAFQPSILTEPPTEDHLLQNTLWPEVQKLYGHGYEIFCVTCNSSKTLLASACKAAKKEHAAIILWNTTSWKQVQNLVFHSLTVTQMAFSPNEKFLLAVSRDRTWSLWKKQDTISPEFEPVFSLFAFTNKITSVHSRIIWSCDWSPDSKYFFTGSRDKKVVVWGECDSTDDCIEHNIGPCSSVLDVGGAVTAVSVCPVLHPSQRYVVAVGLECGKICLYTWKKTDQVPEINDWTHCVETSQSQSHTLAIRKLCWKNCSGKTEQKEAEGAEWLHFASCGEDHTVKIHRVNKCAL
UniProt O15371, whole entry, looked up: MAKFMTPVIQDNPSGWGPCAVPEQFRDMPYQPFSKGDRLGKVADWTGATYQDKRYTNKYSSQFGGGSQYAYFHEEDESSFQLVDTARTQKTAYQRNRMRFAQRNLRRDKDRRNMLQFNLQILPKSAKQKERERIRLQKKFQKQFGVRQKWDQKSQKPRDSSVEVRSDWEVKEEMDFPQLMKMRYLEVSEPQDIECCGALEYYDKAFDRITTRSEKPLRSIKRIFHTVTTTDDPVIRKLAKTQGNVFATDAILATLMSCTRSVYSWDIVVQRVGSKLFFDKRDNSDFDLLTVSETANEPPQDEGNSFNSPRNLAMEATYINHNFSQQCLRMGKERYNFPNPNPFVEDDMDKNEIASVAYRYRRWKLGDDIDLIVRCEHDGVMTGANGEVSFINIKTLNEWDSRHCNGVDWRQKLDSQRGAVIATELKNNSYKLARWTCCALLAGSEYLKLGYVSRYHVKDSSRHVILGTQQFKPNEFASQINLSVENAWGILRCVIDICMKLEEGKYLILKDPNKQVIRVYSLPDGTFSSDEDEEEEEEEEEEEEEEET
UniProt Q96EB1: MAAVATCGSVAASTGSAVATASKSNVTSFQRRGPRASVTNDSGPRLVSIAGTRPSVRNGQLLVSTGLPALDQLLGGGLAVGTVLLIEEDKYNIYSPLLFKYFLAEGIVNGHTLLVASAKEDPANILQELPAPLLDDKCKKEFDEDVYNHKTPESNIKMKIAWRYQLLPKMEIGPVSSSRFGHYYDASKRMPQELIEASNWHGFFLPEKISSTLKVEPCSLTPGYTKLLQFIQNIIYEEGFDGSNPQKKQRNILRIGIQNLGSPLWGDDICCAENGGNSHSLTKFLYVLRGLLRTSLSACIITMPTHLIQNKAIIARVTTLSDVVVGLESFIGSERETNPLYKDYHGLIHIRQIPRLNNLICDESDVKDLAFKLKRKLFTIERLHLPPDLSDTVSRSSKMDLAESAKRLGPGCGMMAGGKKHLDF
UniProt Q96C19: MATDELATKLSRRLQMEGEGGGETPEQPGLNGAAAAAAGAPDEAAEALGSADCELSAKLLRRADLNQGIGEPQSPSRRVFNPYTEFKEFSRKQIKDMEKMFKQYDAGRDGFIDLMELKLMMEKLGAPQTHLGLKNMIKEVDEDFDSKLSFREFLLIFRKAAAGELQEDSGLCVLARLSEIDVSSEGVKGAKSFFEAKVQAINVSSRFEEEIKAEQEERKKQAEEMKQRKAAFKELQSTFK
UniProt P41214: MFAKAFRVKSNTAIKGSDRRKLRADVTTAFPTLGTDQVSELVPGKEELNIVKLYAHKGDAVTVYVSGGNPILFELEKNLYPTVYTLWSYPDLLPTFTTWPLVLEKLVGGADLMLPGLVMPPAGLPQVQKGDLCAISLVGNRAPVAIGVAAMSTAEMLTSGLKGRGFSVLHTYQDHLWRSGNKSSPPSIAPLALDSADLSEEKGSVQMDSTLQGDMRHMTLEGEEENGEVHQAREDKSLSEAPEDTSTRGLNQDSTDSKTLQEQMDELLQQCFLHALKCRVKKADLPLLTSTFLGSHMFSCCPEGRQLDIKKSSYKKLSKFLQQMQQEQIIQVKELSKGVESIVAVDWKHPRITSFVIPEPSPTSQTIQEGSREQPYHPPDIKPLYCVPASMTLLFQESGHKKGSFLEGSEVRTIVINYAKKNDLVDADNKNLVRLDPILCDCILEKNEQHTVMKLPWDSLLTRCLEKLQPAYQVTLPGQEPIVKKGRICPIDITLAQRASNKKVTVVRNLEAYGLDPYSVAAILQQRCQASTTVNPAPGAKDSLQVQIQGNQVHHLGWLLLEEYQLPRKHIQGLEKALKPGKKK
UniProt Q13542: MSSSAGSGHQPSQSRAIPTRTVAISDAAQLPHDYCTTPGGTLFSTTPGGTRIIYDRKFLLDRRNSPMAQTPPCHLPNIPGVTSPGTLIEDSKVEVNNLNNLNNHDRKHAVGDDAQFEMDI
UniProt P49770: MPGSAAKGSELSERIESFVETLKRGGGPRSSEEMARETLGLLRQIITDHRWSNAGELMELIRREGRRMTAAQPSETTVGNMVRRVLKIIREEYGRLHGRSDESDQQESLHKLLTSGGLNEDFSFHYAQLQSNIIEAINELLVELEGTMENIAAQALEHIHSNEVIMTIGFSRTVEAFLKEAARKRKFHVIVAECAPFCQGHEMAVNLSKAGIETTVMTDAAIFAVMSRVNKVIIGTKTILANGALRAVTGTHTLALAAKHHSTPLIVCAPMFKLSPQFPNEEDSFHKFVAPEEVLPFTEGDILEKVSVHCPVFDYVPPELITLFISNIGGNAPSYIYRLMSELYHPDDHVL
UniProt Q9UBQ5, whole entry, looked up: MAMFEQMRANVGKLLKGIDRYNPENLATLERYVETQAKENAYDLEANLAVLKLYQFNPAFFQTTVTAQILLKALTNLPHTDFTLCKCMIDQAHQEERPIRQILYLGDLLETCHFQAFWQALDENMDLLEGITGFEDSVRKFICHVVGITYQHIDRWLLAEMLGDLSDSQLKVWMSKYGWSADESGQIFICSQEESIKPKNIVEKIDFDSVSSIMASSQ
UniProt P09104, whole entry, looked up: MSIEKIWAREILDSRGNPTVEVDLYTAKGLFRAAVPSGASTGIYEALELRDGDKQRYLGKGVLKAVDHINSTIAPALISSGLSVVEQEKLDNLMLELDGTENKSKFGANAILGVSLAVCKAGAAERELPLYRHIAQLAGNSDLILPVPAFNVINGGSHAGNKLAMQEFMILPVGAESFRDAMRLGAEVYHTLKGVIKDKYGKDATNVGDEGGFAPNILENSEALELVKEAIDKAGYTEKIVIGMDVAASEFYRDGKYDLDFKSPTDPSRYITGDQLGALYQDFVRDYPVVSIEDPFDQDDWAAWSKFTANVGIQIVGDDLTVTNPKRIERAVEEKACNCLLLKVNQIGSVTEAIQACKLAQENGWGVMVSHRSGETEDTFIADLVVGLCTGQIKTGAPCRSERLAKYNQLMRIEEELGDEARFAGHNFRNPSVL
UniProt Q13347, whole entry, looked up: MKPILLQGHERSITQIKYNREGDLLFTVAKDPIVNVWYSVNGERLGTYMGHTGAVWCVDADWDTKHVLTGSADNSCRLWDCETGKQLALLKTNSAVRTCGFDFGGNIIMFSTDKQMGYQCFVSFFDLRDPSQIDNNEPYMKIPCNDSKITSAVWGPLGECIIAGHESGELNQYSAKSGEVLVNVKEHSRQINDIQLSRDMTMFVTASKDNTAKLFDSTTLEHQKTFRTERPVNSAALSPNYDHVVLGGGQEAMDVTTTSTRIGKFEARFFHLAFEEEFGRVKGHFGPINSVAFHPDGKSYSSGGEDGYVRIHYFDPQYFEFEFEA
UniProt Q9BQ52: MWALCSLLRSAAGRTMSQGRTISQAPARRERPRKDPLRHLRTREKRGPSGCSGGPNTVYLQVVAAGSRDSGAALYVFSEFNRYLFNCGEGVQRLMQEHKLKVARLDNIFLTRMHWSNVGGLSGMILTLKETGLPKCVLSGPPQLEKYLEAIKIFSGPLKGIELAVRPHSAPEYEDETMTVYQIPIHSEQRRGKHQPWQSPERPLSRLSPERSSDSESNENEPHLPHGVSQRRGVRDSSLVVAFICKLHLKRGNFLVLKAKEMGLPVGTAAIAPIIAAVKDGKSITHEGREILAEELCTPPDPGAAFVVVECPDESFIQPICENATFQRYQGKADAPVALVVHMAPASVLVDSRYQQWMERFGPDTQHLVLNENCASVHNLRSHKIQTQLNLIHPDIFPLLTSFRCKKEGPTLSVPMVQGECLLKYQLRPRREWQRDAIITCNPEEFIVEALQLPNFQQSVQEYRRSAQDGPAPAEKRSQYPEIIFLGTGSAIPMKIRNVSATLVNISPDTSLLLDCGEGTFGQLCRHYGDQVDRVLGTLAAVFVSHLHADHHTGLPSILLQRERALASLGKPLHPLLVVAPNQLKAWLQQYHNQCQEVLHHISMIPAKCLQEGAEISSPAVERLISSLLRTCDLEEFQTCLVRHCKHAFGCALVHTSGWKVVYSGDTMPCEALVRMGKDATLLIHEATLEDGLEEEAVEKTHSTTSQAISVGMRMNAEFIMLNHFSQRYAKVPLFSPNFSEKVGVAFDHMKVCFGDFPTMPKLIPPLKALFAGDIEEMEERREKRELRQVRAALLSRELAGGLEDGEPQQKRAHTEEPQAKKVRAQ

Columns and labels:
Test in all cases: log2 fold change, soluble protein after heating vs DMSO (PISA); higher = thermal stabilisation; K562 cells, 10 uM, 30 min; active = over 0.2 and 3.5 SD of the protein, either way, in both replicates (recomputed)
[1] = compound: CC1=C(C=C(C=C1)NC(=O)C2=CC(=CC=C2)C(C)(C)C#N)NC3=CC4=C(C=C3)N=CN(C4=O)C
Outline: (§1)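 Soluble protein was quantified by TMTpro 16plex LC-MS/MS after channel sums were equalised. It was obtained as the supernatant after 21,000xg for 90 min from pooled aliquots of K562 cells (2×10^6 cells/mL, 10 μM compound, 30 min) heated for 3 min across 48°C-58°C and extracted in PBS with 0.5% NP-40 at 4°C. Thermal stability values are relative to control samples and come from duplicates. They are given as log2 fold changes.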

[2] = compound: CC1=C(C=C(C=C1)NC(=O)C2=CC(=CC=C2)N(C)C)NC(=O)C3=CC=C(C=C3)O
Outline: as §1

[3] = compound: CC1=CC=C(C=C1)SC2=C3C=C(SC3=CN=C2)C(=O)N
Outline: as §1

[4] = compound: CC1=NC(=CC=C1)C2=C(N=C(N2)C(C)(C)C)C3=CC4=NC=CN=C4C=C3
Outline: as §1

Nexturastat A = compound: CCCCN(Cc1ccc(C(=O)NO)cc1)C(=O)Nc1ccccc1 [Nexturastat A]
Outline: as §1

vemurafenib = compound: CCCS(=O)(=O)Nc1ccc(F)c(C(=O)c2c[nH]c3ncc(-c4ccc(Cl)cc4)cc23)c1F [vemurafenib]
Outline: as §1

[5] = compound: CCCS(=O)(=O)Nc1ccc(F)c(C(=O)c2c[nH]c3ncc(Cl)cc23)c1F
Outline: as §1

[6] = compound: CCCc1cc(C)[nH]c(=O)c1CNC(=O)c1cc(-c2ccnc(N3CCN(C)CC3)c2)cc2c1cnn2C(C)C
Outline: as §1

givinostat = compound: CCN(CC)Cc1ccc2cc(COC(=O)Nc3ccc(C(=O)NO)cc3)ccc2c1 [givinostat]
Outline: as §1

barasertib = compound: CCN(CCCOc1ccc2c(Nc3cc(CC(=O)Nc4cccc(F)c4)[nH]n3)ncnc2c1)CCOP(=O)(O)O [barasertib]
Outline: as §1

[7] = compound: CC[C@@H]1C(=O)N(C)c2cnc(Nc3ccc(C(=O)NC4CCN(C)CC4)cc3OC)nc2N1C1CCCC1
Outline: as §1

volasertib = compound: CC[C@@H]1C(=O)N(C)c2cnc(Nc3ccc(C(=O)N[C@H]4CC[C@H](N5CCN(CC6CC6)CC5)CC4)cc3OC)nc2N1C(C)C [volasertib]
Outline: as §1

[8] = compound: CC[C@H](C)N1C=C(C2=C(C=C(C=C21)C3=CN=C(C=C3)N4CCNCC4)C(=O)NCC5=C(C=C(NC5=O)C)C)C
Outline: as §1

epoxomicin = compound: CC[C@H](C)[C@@H](C(=O)N[C@@H]([C@@H](C)O)C(=O)N[C@@H](CC(C)C)C(=O)[C@]1(CO1)C)NC(=O)[C@H]([C@@H](C)CC)N(C)C(=O)C [epoxomicin]
Outline: as §1

[9] = compound: CCn1c(C(=O)N(C2CC2)C2CC2)cc2c3c(ncn3C)c(Nc3cc(C)n(C)n3)nc21
Outline: as §1

[10] = compound: CCn1cc(-c2ccnc3[nH]c(-c4cccc(CN(C)C)c4)cc23)c(-c2ccc(NC(=O)N(C)C)cc2)n1
Outline: as §1

[11] = compound: CN(C)CC(=O)Nc1ccc2[nH]c(=O)c3ccccc3c2c1
Outline: as §1

rosiglitazone = compound: CN(CCOC1=CC=C(C=C1)C[C@H]2C(=O)NC(=O)S2)C3=CC=CC=N3 (racemic) [rosiglitazone]
Outline: as §1

[12] = compound: CN1C2=C(C3=C1C(=O)N(N=C3)CC4=CC(=CC=C4)N)SC(=C2)S(=O)C
Outline: as §1

[13] = compound: CN1CCC(CNc2ccc3ncc(-c4cccc(OC(F)(F)F)c4)n3n2)CC1
Outline: as §1

Measured: log2 fold change

ENPP3 (UniProt O14638)
inactive: [1] 0.034 | [2] -0.044 | [3] 0.105 | [4] 0.068 | Nexturastat A 0 | vemurafenib -0.082 | [5] 0.062 | [6] 0.021 | givinostat 0.008 | barasertib 0.019 | [7] -0.191 | volasertib 0.09 | [8] 0.09 | epoxomicin 0.056 | [9] 0.038 | [10] -0.018 | [11] -0.104 | rosiglitazone -0.117 | [12] 0.107 | [13] -0.01

EMC2 (UniProt Q15006)
inactive: [1] -0.017 | [2] 0.018 | [3] -0.02 | [4] 0.113 | Nexturastat A -0.1 | vemurafenib 0.037 | [5] 0.013 | [6] -0.016 | givinostat -0.006 | barasertib 0 | [7] -0.002 | volasertib -0.005 | [8] 0.019 | epoxomicin -0.018 | [9] -0.007 | [10] -0.034 | [11] 0.005 | rosiglitazone -0.026 | [12] -0.047 | [13] 0.006

EEF1A1P5 (UniProt Q5VTE0)
inactive: [1] -0.003 | [2] 0.003 | [3] 0.008 | [4] 0.026 | Nexturastat A -0.021 | vemurafenib -0.01 | [5] -0.005 | [6] -0.239 | givinostat -0.014 | barasertib 0.01 | [7] -0.001 | volasertib 0.051 | [8] -0.022 | epoxomicin 0.047 | [9] -0.003 | [10] -0.007 | [11] -0.013 | rosiglitazone 0.054 | [12] -0.025 | [13] -0.078

ELP2 isoform 6 (UniProt Q6IA86)
inactive: [1] -0.004 | [2] 0.007 | [3] 0.029 | [4] 0.012 | Nexturastat A -0.002 | vemurafenib -0.044 | [5] 0.014 | [6] -0.049 | givinostat -0.066 | barasertib -0.001 | [7] -0.004 | volasertib -0.02 | [8] -0.015 | epoxomicin -0.012 | [9] -0.024 | [10] -0.016 | [11] 0.008 | rosiglitazone -0.002 | [12] -0.036 | [13] -0.005

EIF3D (UniProt O15371)
inactive: [1] 0.02 | [2] -0.024 | [3] 0.072 | [4] 0.006 | Nexturastat A 0.323 | vemurafenib 0.007 | [5] 0.085 | [6] 0.118 | givinostat 0.148 | barasertib 0.082 | [7] -0.01 | volasertib -0.33 | [8] 0.155 | epoxomicin 0.044 | [9] -0.099 | [10] 0.08 | [11] 0.052 | rosiglitazone 0.083 | [12] 0.241 | [13] -0.121

ELP4 (UniProt Q96EB1)
inactive: [1] -0.059 | [2] 0.057 | [3] 0.03 | [4] -0.012 | Nexturastat A 0.17 | vemurafenib -0.016 | [5] -0.09 | [6] -0.034 | givinostat -0.044 | barasertib 0.02 | [7] 0.057 | volasertib 0.013 | [8] -0.032 | epoxomicin 0.003 | [9] -0.053 | [10] -0.052 | [11] -0.104 | rosiglitazone 0.014 | [12] 0.057 | [13] 0.021

EFHD2 (UniProt Q96C19)
inactive: [1] 0.007 | [2] 0.031 | [3] 0.018 | [4] 0.088 | Nexturastat A -0.044 | vemurafenib 0.071 | [5] 0.103 | [6] -0.012 | givinostat 0.024 | barasertib 0.036 | [7] -0.202 | volasertib -0.176 | [8] 0.058 | epoxomicin 0.057 | [9] -0.028 | [10] -0.014 | [11] 0.042 | rosiglitazone 0.067 | [12] -0.035 | [13] -0.031

EIF2D (UniProt P41214)
inactive: [1] -0.018 | [2] -0.034 | [3] 0.165 | [4] -0.034 | Nexturastat A 0.118 | vemurafenib 0.082 | [5] 0.222 | [6] 0.09 | givinostat 0.174 | barasertib 0.104 | [7] -0.036 | volasertib -0.558 | [8] 0.034 | epoxomicin 0.019 | [9] -0.139 | [10] 0.013 | [11] 0.065 | rosiglitazone 0.112 | [12] 0.105 | [13] -0.112

EML3 isoform 2 (UniProt Q32P44)
inactive: [1] -0.038 | [2] 0.081 | [3] -0.014 | [4] -0.092 | Nexturastat A 0.264 | vemurafenib -0.086 | [5] -0.048 | [6] 0.159 | givinostat 0.113 | barasertib -0.017 | [7] 0.058 | volasertib 0.032 | [8] 0.007 | epoxomicin -0.093 | [9] -0.025 | [10] 0.066 | [11] -0.113 | rosiglitazone 0.103 | [12] 0.007 | [13] 0.004

EIF4EBP2 (UniProt Q13542)
inactive: [1] -0.009 | [2] -0.158 | [3] -0.032 | [4] -0.109 | Nexturastat A -0.075 | vemurafenib 0.197 | [5] 0.039 | [6] 0.009 | givinostat 0.029 | barasertib 0.071 | [7] 0.049 | volasertib 0.04 | [8] -0.041 | epoxomicin 0.263 | [9] -0.039 | [10] -0.022 | [11] 0.167 | rosiglitazone 0.021 | [12] -0.017 | [13] -0.058

EIF2B2 (UniProt P49770)
inactive: [1] 0.016 | [2] 0.021 | [3] 0.001 | [4] 0 | Nexturastat A -0.023 | vemurafenib 0.01 | [5] 0.063 | [6] -0.012 | givinostat 0.007 | barasertib -0.003 | [7] -0.007 | volasertib 0.08 | [8] -0.015 | epoxomicin 0.033 | [9] 0.013 | [10] -0.078 | [11] 0.013 | rosiglitazone -0.004 | [12] -0.036 | [13] 0.142

EIF3K (UniProt Q9UBQ5)
inactive: [1] 0.03 | [2] -0.04 | [3] 0.024 | [4] 0.024 | Nexturastat A 0.01 | vemurafenib 0.016 | [5] 0.053 | [6] -0.01 | givinostat -0.011 | barasertib 0.033 | [7] -0.048 | volasertib -0.054 | [8] 0.053 | epoxomicin 0.077 | [9] 0.031 | [10] -0.028 | [11] 0.018 | rosiglitazone 0.024 | [12] -0.02 | [13] -0.001

ENO2 (UniProt P09104)
inactive: [1] -0.033 | [2] 0.04 | [3] 0.011 | [4] -0.007 | Nexturastat A -0.068 | vemurafenib 0.034 | [5] 0.035 | [6] -0.025 | givinostat -0.013 | barasertib -0.005 | [7] 0.029 | volasertib 0.066 | [8] -0.034 | epoxomicin -0.008 | [9] 0.014 | [10] 0.021 | [11] 0.026 | rosiglitazone 0.009 | [12] -0.052 | [13] -0.068

EIF3I (UniProt Q13347)
inactive: [1] 0.014 | [2] -0.012 | [3] 0.027 | [4] -0.011 | Nexturastat A 0.127 | vemurafenib 0.049 | [5] 0.047 | [6] 0.09 | givinostat 0.092 | barasertib 0.075 | [7] -0.031 | volasertib -0.331 | [8] 0.111 | epoxomicin 0.021 | [9] -0.068 | [10] -0.03 | [11] 0.062 | rosiglitazone 0.055 | [12] 0.066 | [13] -0.097

Two records drawn at random from those above:
EIF3I (UniProt Q13347)
inactive: [1] 0.014 | [2] -0.012 | [3] 0.027 | [4] -0.011 | Nexturastat A 0.127 | vemurafenib 0.049 | [5] 0.047 | [6] 0.09 | givinostat 0.092 | barasertib 0.075 | [7] -0.031 | volasertib -0.331 | [8] 0.111 | epoxomicin 0.021 | [9] -0.068 | [10] -0.03 | [11] 0.062 | rosiglitazone 0.055 | [12] 0.066 | [13] -0.097

EIF4EBP2 (UniProt Q13542)
inactive: [1] -0.009 | [2] -0.158 | [3] -0.032 | [4] -0.109 | Nexturastat A -0.075 | vemurafenib 0.197 | [5] 0.039 | [6] 0.009 | givinostat 0.029 | barasertib 0.071 | [7] 0.049 | volasertib 0.04 | [8] -0.041 | epoxomicin 0.263 | [9] -0.039 | [10] -0.022 | [11] 0.167 | rosiglitazone 0.021 | [12] -0.017 | [13] -0.058

Next entries:

ELAC2 (UniProt Q9BQ52)
inactive: [1] -0.017 | [2] 0.017 | [3] 0.01 | [4] -0.002 | Nexturastat A -0.056 | vemurafenib -0.031 | [5] 0.015 | [6] -0.04 | givinostat -0.097 | barasertib -0.021 | [7] 0.038 | volasertib 0.098 | [8] -0.022 | epoxomicin 0.006 | [9] -0.042 | [10] -0.006 | [11] -0.013 | rosiglitazone 0.015 | [12] -0.035 | [13] -0.043

EEFSEC (UniProt P57772)
inactive: [1] 0.063 | [2] 0.033 | [3] 0.027 | [4] -0.02 | Nexturastat A 0.122 | vemurafenib -0.039 | [5] 0.058 | [6] 0.046 | givinostat -0.081 | barasertib -0.064 | [7] -0.176 | volasertib -0.31 | [8] 0.015 | epoxomicin -0.04 | [9] -0.042 | [10] -0.112 | [11] 0.02 | rosiglitazone 0.021 | [12] 0.086 | [13] -0.107
